{"source": "PubChem BioAssay AID1159584 (Peter MacCallum Cancer Centre, 2016)", "assay": "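Genes that CDH1-null MCF10A cells selectively depend on to survive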 (primary screen)", "system": "human MCF10A breast epithelial cells, parental and CDH1-null", "reagents": "siRNA against human genes", "measured": "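Cell viability by CellTiter-Glo ATP luminescence, each line scaled to the mean of mock wells across plates, then CDH1-null over parental ratio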", "scale": "CDH1-null / parental viability ratio: higher = CDH1-null cells survive relatively better than parental; CDH1-null viability vs mock: higher = more viable CDH1-null cells", "units": "CDH1-null viability vs mock in fraction of mock", "note": "Here is one part, drawn at random, of about 18,000 deposited reagents. Further read-outs or replicates are left out here. No sequences are given here. Not stated in the record: the amount of reagent, the time to read-out."}
{"gene": "CUL4B", "CDH1-null / parental viability ratio": 1.24, "CDH1-null viability vs mock": 0.82}
{"gene": "LINC02915", "CDH1-null / parental viability ratio": 1.21, "CDH1-null viability vs mock": 0.88}
{"gene": "POGLUT1", "CDH1-null / parental viability ratio": 1.32, "CDH1-null viability vs mock": 0.58}
{"gene": "APIP", "CDH1-null / parental viability ratio": 1.12, "CDH1-null viability vs mock": 0.92}
{"gene": "XRCC6", "CDH1-null / parental viability ratio": 1.03, "CDH1-null viability vs mock": 0.64}
{"gene": "CPNE7", "CDH1-null / parental viability ratio": 1, "CDH1-null viability vs mock": 0.8}
{"gene": "PTK2B", "CDH1-null / parental viability ratio": 0.88, "CDH1-null viability vs mock": 0.73}
{"gene": "PDILT", "CDH1-null / parental viability ratio": 0.82, "CDH1-null viability vs mock": 0.89}
{"gene": "KLK4", "CDH1-null / parental viability ratio": 0.98, "CDH1-null viability vs mock": 0.86}
{"gene": "UBE2V1", "CDH1-null / parental viability ratio": 1.26, "CDH1-null viability vs mock": 0.43}
{"gene": "DEUP1", "CDH1-null / parental viability ratio": 0.93, "CDH1-null viability vs mock": 0.83}
{"gene": "EIF2B4", "CDH1-null / parental viability ratio": 1.08, "CDH1-null viability vs mock": 0.82}
{"gene": "TMEM179B", "CDH1-null / parental viability ratio": 0.97, "CDH1-null viability vs mock": 0.99}
{"gene": "SERP2", "CDH1-null / parental viability ratio": 0.76, "CDH1-null viability vs mock": 0.64}
{"gene": "DHRS4", "CDH1-null / parental viability ratio": 0.83, "CDH1-null viability vs mock": 0.45}
{"gene": "FOXD4L6", "CDH1-null / parental viability ratio": 0.87, "CDH1-null viability vs mock": 0.8}
{"gene": "CTU2", "CDH1-null / parental viability ratio": 1.31, "CDH1-null viability vs mock": 0.84}
{"gene": "HNRNPM", "CDH1-null / parental viability ratio": 1.1, "CDH1-null viability vs mock": 0.92}
{"gene": "SACK1A", "CDH1-null / parental viability ratio": 0.85, "CDH1-null viability vs mock": 0.62}

A run of entries of the results above:
{"gene": "DHRS4", "CDH1-null / parental viability ratio": 0.83, "CDH1-null viability vs mock": 0.45}
{"gene": "FOXD4L6", "CDH1-null / parental viability ratio": 0.87, "CDH1-null viability vs mock": 0.8}
{"gene": "CTU2", "CDH1-null / parental viability ratio": 1.31, "CDH1-null viability vs mock": 0.84}

Next entries follow.
{"gene": "SPATA7", "CDH1-null / parental viability ratio": 0.96, "CDH1-null viability vs mock": 0.54}
{"gene": "RIPK4", "CDH1-null / parental viability ratio": 1.13, "CDH1-null viability vs mock": 0.88}
{"gene": "RBMY1D", "CDH1-null / parental viability ratio": 1.06, "CDH1-null viability vs mock": 1.21}
{"gene": "ACSM6", "CDH1-null / parental viability ratio": 1.09, "CDH1-null viability vs mock": 0.93}
{"gene": "RFX1", "CDH1-null / parental viability ratio": 0.94, "CDH1-null viability vs mock": 0.66}
{"gene": "TNPO1", "CDH1-null / parental viability ratio": 0.62, "CDH1-null viability vs mock": 0.45}
{"gene": "DDX3X", "CDH1-null / parental viability ratio": 1.03, "CDH1-null viability vs mock": 0.64}
{"gene": "CHRNB1", "CDH1-null / parental viability ratio": 1.34, "CDH1-null viability vs mock": 1.18}
{"gene": "RTP3", "CDH1-null / parental viability ratio": 0.99, "CDH1-null viability vs mock": 0.88}
{"gene": "HSFY2", "CDH1-null / parental viability ratio": 1.26, "CDH1-null viability vs mock": 0.78}
{"gene": "C19orf33", "CDH1-null / parental viability ratio": 1.29, "CDH1-null viability vs mock": 0.62}
{"gene": "USPL1", "CDH1-null / parental viability ratio": 0.65, "CDH1-null viability vs mock": 0.52}
{"gene": "NDUFAF5", "CDH1-null / parental viability ratio": 1.21, "CDH1-null viability vs mock": 1.14}
{"gene": "CRHR2", "CDH1-null / parental viability ratio": 0.71, "CDH1-null viability vs mock": 0.77}
{"gene": "OR4A47", "CDH1-null / parental viability ratio": 0.82, "CDH1-null viability vs mock": 0.4}
{"gene": "SSTR3", "CDH1-null / parental viability ratio": 1.46, "CDH1-null viability vs mock": 0.98}
